Test results: PubChem BioAssay AID1487 (National Center for Advancing Translational Sciences (NCATS), 2009)
The other results are listed elsewhere or left out. These are further read-outs of the screen, such as a control signal, another cell line or another target. No call is given for them. Compounds called inactive in the main read-out are mostly missing here. Words in brackets tell the shape of the fitted curve; partial curves, single points and poor fits give uncertain potencies.

Experiment: qHTS Assay for Modulators of Lamin A Splicing
Settings: HeLa LMNA splicing GFP/RFP minigene ratio, 48 h
How it was run: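 S3 HeLa cells stably expressing lamin A-EGFP splicing minigene plus DsRed2, 600 cells/well, 48 h compound exposure at 37C. Laser-scanning cytometry; analysed as GFP (500-530 nm)/RFP (575-640 nm) total intensity ratio; 0.5% DMSO vehicle.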

[1] = measured here: RFP viability control channel
[2] = measured here: GFP splicing reporter channel

Row | Compound | AC50 [1] | AC50 [2]
1 | COc1cc(-c2cc3n(C)c(C)c(CCC(=O)NC4CCCCC4)c(=O)n3n2)cc(OC)c1OC | 0.126 µM [falling, full curve, poor fit] | –
2 | COc1ccc(S(=O)(=O)Nc2cccc(N(C)S(C)(=O)=O)c2)cc1Br | 14.1 µM [rising, single point] | –
3 | O=C1CC(c2cccc(Br)c2)c2cc3c(cc2N1)CCC3 (configuration not stated) | 8.91 µM [falling, partial curve] | –
4 | CCOc1ccc(NC(=O)Nc2ccc(N(C)C(C)=O)cc2)cc1 | 35.5 µM [falling, single point] | –
5 | CC(=O)Nc1ccc(NC(=O)COC(=O)c2c(C)nn(-c3ccccc3)c2C)cc1 | – | 6.31 µM [falling, single point]
6 | CCCOC(=O)c1ccc(Oc2cn[nH]c2-c2ccc(OC)cc2O)cc1 | 20 µM [rising, single point] | 35.5 µM [rising, single point]
7 | COc1ccc(OCc2ccc(-c3nc(C#N)c(N4CCCCC4)o3)o2)cc1 | 0.0126 µM [falling, full curve, poor fit] | –
8 | COc1ccc(-n2nc([N+](=O)[O-])c(=NCCc3ccc(OC)c(OC)c3)n2O)cc1 | 12.6 µM [rising, partial curve] | 10 µM [rising, partial curve]
9 | OC(COCc1ccccc1)CN1CCN(Cc2ccc3c(c2)OCO3)CC1 (configuration not stated) | 0.0501 µM [rising, full curve, poor fit] | 0.0501 µM [rising, full curve]
10 | CCCCOc1ccc(Br)cc1/C(C)=N/NC1=NCCN1 | 20 µM [falling, single point] | 20 µM [falling, partial curve]
11 | Cc1c(C(=O)N(C)C)sc2c1c(=O)n(-c1ccc(Cl)cc1)c(=O)n2CC(=O)C(C)(C)C | – | 8.91 µM [falling, full curve, poor fit]
12 | O=C(Nc1nccs1)c1cccc(NC(=O)c2ccco2)c1 | 22.4 µM [rising, single point] | –
13 | COc1ccccc1Nc1nc2ccccc2[nH]1 | 11.2 µM [rising, single point] | –
14 | O=C(NCC1CCCO1)c1ccc(OC2CCN(C(=O)C3CC3)CC2)cc1 (configuration not stated) | 35.5 µM [rising, partial curve, poor fit] | 17.8 µM [rising, partial curve, poor fit]
15 | CN(C(=S)Oc1ccc(C(=O)Nc2ccccc2)cc1)c1ccccc1 | 12.6 µM [rising, partial curve] | 10 µM [rising, single point]
16 | N#CC(C(=O)NCc1ccccc1)c1nc2ccccc2nc1N1CCCC1 (configuration not stated) | 5.62 µM [falling, single point] | 5.62 µM [falling, single point]
17 | CCC1=C(c2ccc(C)cc2)S(=O)(=O)N=C1N1CCC(C(=O)NCc2ccc(N(C)C)cc2)CC1 | – | 22.4 µM [falling, partial curve]
18 | CSCSC1=C(C#N)C(c2ccc(Cl)cc2)C(C(C)=O)=C(C)N1 (configuration not stated) | 12.6 µM [rising, partial curve, poor fit] | –
19 | Cc1cccc(N2CCN(C(=O)c3cnc(N4CCCC4)nc3C)CC2)c1C | – | 35.5 µM [falling, single point]
20 | O=C(Nc1ccc(OCc2ccccc2)cc1)c1cccc([N+](=O)[O-])c1 | 0.00447 µM [falling, full curve, poor fit] | –
21 | Cc1cccc(N2CCN(C(=O)c3c(C)nn(Cc4ccccc4Cl)c3C)CC2)c1C | 12.6 µM [rising, single point] | –
22 | CC(Oc1ccc(Cl)cc1Cl)c1ccnc2nc(N3CCOCC3)nn12 (configuration not stated) | – | 0.0282 µM [falling, full curve, poor fit]
23 | CCCCC1(Cc2cccc([N+](=O)[O-])c2)C(=O)N(c2ccccc2)N(c2ccccc2)C1=O | 11.2 µM [rising, partial curve] | –
24 | COc1ccc(-c2nc(N)nc(C)c2Oc2ccccc2Br)c(O)c1 | 35.5 µM [falling, single point] | 35.5 µM [falling, single point]
25 | Cc1nn(-c2ccccc2)c(N2CCCC2)c1/C=N/Nc1ccc(S(=O)(=O)Nc2ccccc2)cc1[N+](=O)[O-] | 3.16 µM [rising, full curve] | –
26 | O=C(NCCCN1CCOCC1)c1cnn2c(-c3ccccc3)cc(-c3ccccc3)nc12 | 14.1 µM [rising, single point] | –
27 | Cc1ccc(NC(=O)CCN2CCN(C/C=C/c3ccccc3)CC2)cc1C | – | 14.1 µM [rising, single point]

Entries shown so far containing two or more sulfur atoms (2):
Row | Compound | AC50 [1] | AC50 [2]
2 | COc1ccc(S(=O)(=O)Nc2cccc(N(C)S(C)(=O)=O)c2)cc1Br | 14.1 µM [rising, single point] | –
18 | CSCSC1=C(C#N)C(c2ccc(Cl)cc2)C(C(C)=O)=C(C)N1 (configuration not stated) | 12.6 µM [rising, partial curve, poor fit] | –

Later entries.

Row | Compound | AC50 [1] | AC50 [2]
28 | CCOC(=O)c1cc(C(=O)OCC)c(=O)[nH]c1C | 0.112 µM [falling, single point] | 0.891 µM [falling, single point]
29 | O=C1CCC/C(=N/NC(=O)c2ccc(CN3c4cccc5cccc(c45)S3(=O)=O)cc2)C1 | 22.4 µM [rising, single point] | –
30 | Cc1ccccc1OCC(O)Cn1c(Br)nc2c1c(=O)n(C)c(=O)n2C (configuration not stated) | 35.5 µM [rising, single point] | 35.5 µM [rising, single point]
31 | CCN1CCN(CCCN(Cc2ccco2)C(=S)Nc2ccc(Cl)c(C)c2)CC1 | – | 10 µM [falling, partial curve, poor fit]
32 | COc1ccc(-c2csc(NC(=O)C3=NN(c4ccccc4)C(=O)CC3)n2)cc1 | 5.62 µM [rising, partial curve, poor fit] | 3.98 µM [rising, full curve, poor fit]
33 | Cc1nc2ccc(S(=O)(=O)N(CC(=O)Nc3ccc(F)cc3)Cc3ccccc3)cc2s1 | 0.355 µM [falling, partial curve, poor fit] | –
34 | CCc1ccc(-c2csc(NC(=O)C3=NN(c4ccccc4)C(=O)CC3)n2)cc1 | 2.82 µM [rising, full curve] | –
35 | Cc1ccc(S(=O)(=O)N2CCOCC2)cc1C(=O)NCc1cn2ccsc2n1 | – | 3.98 µM [rising, full curve, poor fit]
36 | CC(C)(C)OC(=O)N1CCC(c2c(C(=O)N3CCN(C(=O)c4ccco4)CC3)cnn2-c2ccc(F)cc2F)CC1 | 0.0112 µM [falling, full curve] | –
37 | Cc1ccc2nc(SC(C)C(=O)NCc3ccco3)[nH]c2c1 (configuration not stated) | – | 4.47 µM [rising, partial curve]
38 | COc1cccc(/C=C2\SC(=S)N(c3cccnc3)C2=O)c1OC | – | 0.398 µM [rising, full curve, poor fit]
39 | Cc1ccc(NC2=C(Cl)C(=O)OC2OC(=O)c2ccco2)cc1 (configuration not stated) | 12.6 µM [rising, single point] | –
40 | O=C(c1c[nH]c(C(=O)N2CCN(Cc3ccccc3)CC2)c1)C1CCCCC1 | 0.0794 µM [falling, full curve, poor fit] | –
41 | COc1ccc2[nH]cc(CCNc3nc(-c4ccccc4CN(C)C)nc4ccccc34)c2c1 | 12.6 µM [rising, partial curve] | –
42 | COc1ccccc1CNC(=O)c1ccc(Cn2c(SCc3ccccc3)nc3cccnc32)cc1 | 0.01 µM [falling, full curve, poor fit] | 0.0112 µM [falling, full curve, poor fit]
43 | CC1CN(S(=O)(=O)c2cccc(-c3csc(-c4ccccc4)n3)c2)CC(C)O1 (configuration not stated) | 31.6 µM [rising, single point] | 31.6 µM [rising, single point]
44 | Cc1nn(-c2ccccc2)c(C)c1NC(=O)COc1ccc(F)cc1Cl | 14.1 µM [rising, partial curve] | 14.1 µM [rising, partial curve]
45 | O=C(/C=C(\c1ccccc1)n1cncn1)c1ccccc1 | – | 3.98 µM [rising, partial curve]
46 | COc1ccc(C(=O)/C=C/C(=O)N(CC(=O)NC2CCCCC2)Cc2ccc(F)cc2)c(O)c1 | 5.62 µM [falling, full curve] | 6.31 µM [falling, full curve]
47 | O=C(CC1SC(=Nc2cccc3ccccc23)N(Cc2ccccn2)C1=O)Nc1ccccc1Br (configuration not stated) | 3.55 µM [rising, partial curve] | 3.16 µM [rising, full curve]
48 | CSc1nnc([C@@H]2CCCN2C(=O)OC(C)(C)C)o1 | – | 0.0447 µM [rising, full curve, poor fit]
49 | CCNc1ncc2nc(-c3cn(C)c4ccccc34)c(=O)n(CCC#N)c2n1 | – | 3.55 µM [falling, partial curve, poor fit]
50 | CCOCC(=O)Nc1ccc(S(=O)(=O)NCCc2ccccc2)cc1 | 15.8 µM [rising, partial curve] | 17.8 µM [rising, partial curve]
51 | C[C@@]1(C2CCCC2)Cc2cc(OCC(=O)O)c(Cl)c(Cl)c2C1=O | – | 0.251 µM [rising, full curve, poor fit]
52 | COc1ccc(-n2c(C)nc3c(cnn3-c3ccc(Cl)cc3)c2=O)cc1 | 3.16 µM [rising, full curve] | 8.91 µM [rising, partial curve]
53 | Cc1cc(Cl)ccc1OCC(=O)N1CCN(c2ncccn2)CC1 | 0.141 µM [rising, full curve, poor fit] | –
54 | COc1ccc(C2CC(c3ccc(Br)cc3)=NN2C(=O)CSC2=NCCS2)cc1 (configuration not stated) | 12.6 µM [rising, single point] | –

Looked up by compound from above:
Row | Compound | AC50 [1] | AC50 [2]
8 | COc1ccc(-n2nc([N+](=O)[O-])c(=NCCc3ccc(OC)c(OC)c3)n2O)cc1 | 12.6 µM [rising, partial curve] | 10 µM [rising, partial curve]
18 | CSCSC1=C(C#N)C(c2ccc(Cl)cc2)C(C(C)=O)=C(C)N1 (configuration not stated) | 12.6 µM [rising, partial curve, poor fit] | –
